Some of these results come from one statement about several compounds together.
Molecular target: T1, FLT3-ITD (Homo sapiens, UniProt P36888)
T1 sequence (P36888 with tags, fused parts or gaps INS600HVDFREYEYD): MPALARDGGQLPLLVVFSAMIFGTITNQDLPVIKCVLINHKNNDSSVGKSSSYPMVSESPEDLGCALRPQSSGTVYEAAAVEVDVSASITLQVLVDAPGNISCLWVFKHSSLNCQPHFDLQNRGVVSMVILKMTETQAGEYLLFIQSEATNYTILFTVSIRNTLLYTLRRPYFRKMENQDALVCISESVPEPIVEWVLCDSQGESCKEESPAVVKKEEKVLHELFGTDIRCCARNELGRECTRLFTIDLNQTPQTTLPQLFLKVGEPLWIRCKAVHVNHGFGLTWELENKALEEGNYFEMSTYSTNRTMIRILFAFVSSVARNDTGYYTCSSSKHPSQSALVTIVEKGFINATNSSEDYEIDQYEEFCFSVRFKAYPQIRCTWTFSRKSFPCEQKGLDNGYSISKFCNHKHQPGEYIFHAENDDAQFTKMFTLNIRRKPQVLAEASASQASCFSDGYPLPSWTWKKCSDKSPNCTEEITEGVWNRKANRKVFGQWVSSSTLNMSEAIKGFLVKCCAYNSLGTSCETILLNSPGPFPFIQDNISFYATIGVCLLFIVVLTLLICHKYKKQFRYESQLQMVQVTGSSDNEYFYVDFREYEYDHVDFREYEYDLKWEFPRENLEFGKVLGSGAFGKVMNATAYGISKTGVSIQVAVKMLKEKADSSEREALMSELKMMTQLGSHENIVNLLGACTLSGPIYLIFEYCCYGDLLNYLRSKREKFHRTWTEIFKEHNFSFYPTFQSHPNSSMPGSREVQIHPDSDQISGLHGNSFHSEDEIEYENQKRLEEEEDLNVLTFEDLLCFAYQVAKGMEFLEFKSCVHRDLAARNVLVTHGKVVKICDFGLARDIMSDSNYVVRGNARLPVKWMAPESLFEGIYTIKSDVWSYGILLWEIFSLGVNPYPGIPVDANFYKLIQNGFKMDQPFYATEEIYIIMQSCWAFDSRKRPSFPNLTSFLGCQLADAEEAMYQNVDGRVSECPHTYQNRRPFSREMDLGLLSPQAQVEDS
Assay: Flt3 assays described in Example 3 (cell-based assays of Flt3-ITD kinase activity in MV-4-11 cells)
Conditions: read-out: IC50 in the Flt3 assays described above in Example 3

CC(C)(C)Oc1ccc(Cc2c[nH]c3ncccc23)cn1 [Compound P-0020, 3-(6-tert-Butoxy-pyridin-3-ylmethyl)-1H-pyrrolo[2,3-b]pyridine]
IC50: < 1000 nM

COc1ccc(Cc2c[nH]c3nccc(-c4ccsc4)c23)cn1 [Compound P-0022, 3-(6-Methoxy-pyridin-3-ylmethyl)-4-thiophen-3-yl-1H-pyrrolo[2,3-b]pyridine]
IC50: < 1000 nM

CC(C)CNc1ccc(C(O)c2c[nH]c3ncccc23)cn1 (stereo not drawn) [Compound P-0029, (6-Isobutylamino-pyridin-3-yl)-(1H-pyrrolo[2,3-b]pyridin-3-yl)-methanol]
IC50: < 1000 nM

OC(c1ccc(NCC2CCCCC2)nc1)c1c[nH]c2ncccc12 (stereo not drawn) [Compound P-0035, [6-(Cyclohexylmethyl-amino)-pyridin-3-yl]-(1H-pyrrolo[2,3-b]pyridin-3-yl)-methanol]
IC50: < 1000 nM

OC(c1ccc(NCc2ccc(C(F)(F)F)cc2)nc1)c1c[nH]c2ncccc12 (stereo not drawn) [Compound P-0036, (1H-Pyrrolo[2,3-b]pyridin-3-yl)-[6-(4-trifluoromethyl-benzylamino)-pyridin-3-yl]-methanol]
IC50: < 1000 nM

OC(c1ccc(NCc2ccc(Cl)cc2)nc1)c1c[nH]c2ncccc12 (stereo not drawn) [Compound P-0037, [6-(4-Chloro-benzylamino)-pyridin-3-yl]-(1H-pyrrolo[2,3-b]pyridin-3-yl)-methanol]
IC50: < 1000 nM

COC(c1ccc(NCc2ccc(Cl)cc2)nc1)c1c[nH]c2ncccc12 (stereo not drawn) [Compound P-0039, (4-Chloro-benzyl)-{5-[methoxy-(1H-pyrrolo[2,3-b]pyridin-3-yl)-methyl]-pyridin-2-yl}-amine]
IC50: < 1000 nM

COC(c1ccc(NCc2ccc(Cl)c(C(F)(F)F)c2)nc1)c1c[nH]c2ncccc12 (stereo not drawn) [Compound P-0040, (4-Chloro-3-trifluoromethyl-benzyl)-{5-[methoxy-(1H-pyrrolo[2,3-b]pyridin-3-yl)-methyl]-pyridin-2-yl}-amine]
IC50: < 1000 nM

COC(c1ccc(NCc2ccc(Cl)cc2)nc1)c1c[nH]c2ncc(-c3cccnc3)cc12 (stereo not drawn) [Compound P-0041, (4-Chloro-benzyl)-{5-[methoxy-(5-pyridin-3-yl-1H-pyrrolo[2,3-b]pyridin-3-yl)-methyl]-pyridin-2-yl}-amine]
IC50: < 1000 nM

Cc1nc(NCc2ccc(Cl)cc2)ccc1C(O)c1c[nH]c2ncccc12 (stereo not drawn) [Compound P-0046, [6-(4-Chloro-benzylamino)-2-methyl-pyridin-3-yl]-(1H-pyrrolo[2,3-b]pyridin-3-yl)-methanol]
IC50: < 1000 nM

O=C(c1ccc(NCc2ccc(Cl)cc2)nc1NCc1ccc(Cl)cc1)c1c[nH]c2ncccc12 [Compound P-0049, [2,6-Bis-(4-chloro-benzylamino)-pyridin-3-yl]-(1H-pyrrolo[2,3-b]pyridin-3-yl)-methanone]
IC50: < 1000 nM

CCSc1nc(C)c(Cc2c[nH]c3ncccc23)c(C)n1 [Compound P-0052, 3-(2-Ethylsulfanyl-4,6-dimethyl-pyrimidin-5-ylmethyl)-1H-pyrrolo[2,3-b]pyridine]
IC50: < 1000 nM

Clc1ccc(CNc2ccc(Cc3c[nH]c4ncccc34)nn2)cc1 [Compound P-0092, (4-Chloro-benzyl)-[6-(1H-pyrrolo[2,3-b]pyridin-3-ylmethyl)-pyridazin-3-yl]-amine]
IC50: < 1000 nM

c1cnc2[nH]cc(Cc3ccc(NCc4ccc(CN5CCOCC5)cc4)nc3)c2c1 [Compound P-0093, (4-Morpholin-4-ylmethyl-benzyl)-[5-(1H-pyrrolo[2,3-b]pyridin-3-ylmethyl)-pyridin-2-yl]-amine]
IC50: < 1000 nM

c1cncc(CNc2ccc(Cc3c[nH]c4ncccc34)cn2)c1 [Compound P-0094, Pyridin-3-ylmethyl-[5-(1H-pyrrolo[2,3-b]pyridin-3-ylmethyl)-pyridin-2-yl]-amine]
IC50: < 1000 nM

Cc1cc(CNc2ccc(Cc3c[nH]c4ncccc34)cn2)no1 [Compound P-0095, (5-Methyl-isoxazol-3-ylmethyl)-[5-(1H-pyrrolo[2,3-b]pyridin-3-ylmethyl)-pyridin-2-yl]-amine]
IC50: < 1000 nM

c1cnc2[nH]cc(Cc3ccc(NCCN4CCCC4)nc3)c2c1 [Compound P-0096, (2-Pyrrolidin-1-yl-ethyl)-[5-(1H-pyrrolo[2,3-b]pyridin-3-ylmethyl)-pyridin-2-yl]-amine]
IC50: < 1000 nM

CC(Nc1ccc(Cc2c[nH]c3ncccc23)cn1)c1ccc(S(C)(=O)=O)cc1 (stereo not drawn) [Compound P-0097, [1-(4-Methanesulfonyl-phenyl)-ethyl]-[5-(1H-pyrrolo[2,3-b]pyridin-3-ylmethyl)-pyridin-2-yl]-amine]
IC50: < 1000 nM

COCCNc1ccc(Cc2c[nH]c3ncccc23)cn1 [Compound P-0098, (2-Methoxy-ethyl)-[5-(1H-pyrrolo[2,3-b]pyridin-3-ylmethyl)-pyridin-2-yl]-amine]
IC50: < 1000 nM

c1cnc2[nH]cc(Cc3ccc(NCCN4CCOCC4)nc3)c2c1 [Compound P-0099, (2-Morpholin-4-yl-ethyl)-[5-(1H-pyrrolo[2,3-b]pyridin-3-ylmethyl)-pyridin-2-yl]-amine]
IC50: < 1000 nM

O=C(Nc1ccc(Cc2c[nH]c3ncccc23)cn1)c1ccc(Cl)c(Cl)c1 [Compound P-0100, 3,4-Dichloro-N-[5-(1H-pyrrolo[2,3-b]pyridin-3-ylmethyl)-pyridin-2-yl]-benzamide]
IC50: < 1000 nM

O=C(Nc1ccc(Cc2c[nH]c3ncccc23)cn1)c1ccc(F)cc1Cl [Compound P-0101, 2-Chloro-4-fluoro-N-[5-(1H-pyrrolo[2,3-b]pyridin-3-ylmethyl)-pyridin-2-yl]-benzamide]
IC50: < 1000 nM

Cc1cc(C(=O)Nc2ccc(Cc3c[nH]c4ncccc34)cn2)n(C)n1 [Compound P-0102, 2,5-Dimethyl-2H-pyrazole-3-carboxylic acid [5-(1H-pyrrolo[2,3-b]pyridin-3-ylmethyl)-pyridin-2-yl]-amide]
IC50: < 1000 nM

O=C(Nc1ccc(Cc2c[nH]c3ncccc23)cn1)c1cccs1 [Compound P-0103, Thiophene-2-carboxylic acid [5-(1H-pyrrolo[2,3-b]pyridin-3-ylmethyl)-pyridin-2-yl]-amide]
IC50: < 1000 nM

COc1cc(C(=O)Nc2ccc(Cc3c[nH]c4ncccc34)cn2)ccn1 [Compound P-0104, 2-Methoxy-N-[5-(1H-pyrrolo[2,3-b]pyridin-3-ylmethyl)-pyridin-2-yl]-isonicotinamide]
IC50: < 1000 nM

O=C(Nc1ccc(Cc2c[nH]c3ncccc23)cn1)c1ccncc1 [Compound P-0105, N-[5-(1H-Pyrrolo[2,3-b]pyridin-3-ylmethyl)-pyridin-2-yl]-isonicotinamide]
IC50: < 1000 nM

O=C(Nc1ccc(Cc2c[nH]c3ncccc23)cn1)c1ccccn1 [Compound P-0107, Pyridine-2-carboxylic acid [5-(1H-pyrrolo[2,3-b]pyridin-3-ylmethyl)-pyridin-2-yl]-amide]
IC50: < 1000 nM

Cc1ccc(C(=O)Nc2ccc(Cc3c[nH]c4ncccc34)cn2)cn1 [Compound P-0108, 6-Methyl-N-[5-(1H-pyrrolo[2,3-b]pyridin-3-ylmethyl)-pyridin-2-yl]-nicotinamide]
IC50: < 1000 nM

Cc1cc(C(=O)Nc2ccc(Cc3c[nH]c4ncccc34)cn2)ccc1F [Compound P-0109, 4-Fluoro-3-methyl-N-[5-(1H-pyrrolo[2,3-b]pyridin-3-ylmethyl)-pyridin-2-yl]-benzamide]
IC50: < 1000 nM

O=C(Nc1ccc(Cc2c[nH]c3ncccc23)cn1)c1cccc(Cl)c1 [Compound P-0111, 3-Chloro-N-[5-(1H-pyrrolo[2,3-b]pyridin-3-ylmethyl)-pyridin-2-yl]-benzamide]
IC50: < 1000 nM

Source: patent US9550768B2, “Kinase modulation and indications therefor” (PLEXXIKON INC., priority 2011, dated 2017)
